Entries after “also recorded” stand apart in the source; their conditions may differ. Square brackets hold non-standard residues; d marks the D form. Ends that are not written are not given here. pT = C[C@@H](OP(=O)(O)O)[C@H](N)C(=O)O
Tested on: CHIP-TPR (21–154)
Experiment: X-ray crystal structures of CHIP-TPR with HSP70 peptides
Design: species or system Hs
Conditions: crystal structures 9DYA (EEVD) and 9DYB (pEEVD)

## GP[pT]IEEVD [pT-HSP70 peptide, phosphorylated HSP(C)70 peptide]
  change of hydrogen bonds on phosphorylation: eliminates a hydrogen bond; also recorded: removes two hydrogen bonds

From article doi:10.1101/2025.02.17.637997, “Phosphorylation-State Modulated Binding of HSP70: Structural Insights and Compensatory Protein Engineering” (bioRxiv, 2025)
